# Reference: the supplement of paper PMC8728848
# The other results are listed elsewhere or left out.
# B1: M6PR (Bos taurus), P11456 (protein)
# chain: MMSPLHSSWRTGLLLLLLFSVAVRESWQTEEKTCDLVGEKGKESEKELALLKRLTPLFNKSFESTVGQSPDMYSYVFRVCREAGNHSSGAGLVQINKSNGKETVVGRFNETQIFNGSNWIMLIYKGGDEYDNHCGREQRRAVVMISCNRHTLADNFN
# Columns and labels:
# Assay in all cases: glycan array binding signal (z-score within array); higher = stronger binding
# Settings in all cases: glycan notation: IUPAC condensed, linker removed
# [1] = target: Gal(b1-3)GalNAc
# Method in brief: (§1)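 Columns mapping to the same glycan were averaged after glycan names were converted to IUPAC-condensed notation. The data come from 3228 arrays in the Consortium for Functional Glycomics database, limited to those with an available protein sequence. Binding is reported as a within-array Z-score averaged across arrays of one protein sequence and across linkers.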
# [2] = target: Gal(b1-3)GalNAc(b1-3)Gal(a1-4)Gal(b1-4)Glc
# Method in brief: as §1
# [3] = target: Gal(b1-3)GalNAc(b1-4)Gal(b1-4)Glc
# Method in brief: as §1
# [4] = target: Gal(b1-3)GalNAc(b1-4)[Neu5Ac(a2-3)]Gal(b1-4)Glc
# Method in brief: as §1
# [5] = target: Gal(b1-3)GlcNAc
# Method in brief: as §1
# [6] = target: Gal(b1-3)GlcNAc(b1-3)Gal(b1-3)GlcNAc
# Method in brief: as §1
# [7] = target: Gal(b1-3)GlcNAc(b1-3)Gal(b1-4)Glc
# Method in brief: as §1
# [8] = target: Gal(b1-3)GlcNAc(b1-3)Gal(b1-4)GlcNAc
# Method in brief: as §1
# [9] = target: Gal(b1-3)[Fuc(a1-4)]GlcNAc
# Method in brief: as §1
# [10] = target: Gal(b1-3)[Fuc(a1-4)]GlcNAc(b1-3)Gal(b1-3)[Fuc(a1-4)]GlcNAc
# Method in brief: as §1
# [11] = target: Gal(b1-3)[Fuc(a1-4)]GlcNAc(b1-3)Gal(b1-4)GlcNAc
# Method in brief: as §1
# [12] = target: Gal(b1-3)[Fuc(a1-4)]GlcNAc(b1-3)Gal(b1-4)[Fuc(a1-3)]GlcNAc
# Method in brief: as §1
# [13] = target: Gal(b1-3)[GlcNAc(b1-6)]GalNAc
# Method in brief: as §1
# [14] = target: Gal(b1-3)[Neu5Ac(a2-6)]GalNAc
# Method in brief: as §1
# [15] = target: Gal(b1-3)[Neu5Ac(a2-6)]GlcNAc(b1-6)Gal(b1-4)Glc
# Method in brief: as §1
# [16] = target: Gal(b1-3)[Neu5Ac(b2-6)]GalNAc
# Method in brief: as §1
# [17] = target: Gal(b1-4)GalNAc(a1-3)[Fuc(a1-2)]Gal(b1-4)GlcNAc
# Method in brief: as §1
# [18] = target: Gal(b1-4)GalNAc(b1-3)[Fuc(a1-2)]Gal(b1-4)GlcNAc
# Method in brief: as §1
# [19] = target: Gal(b1-4)Glc
# Method in brief: as §1
# [20] = target: Gal(b1-4)Glc6S
# Method in brief: as §1
# [21] = target: Gal(b1-4)GlcNAc
# Method in brief: as §1
# [22] = target: Gal(b1-4)GlcNAc(b1-2)Man(a1-3)[Gal(b1-4)GlcNAc(b1-2)Man(a1-6)]Man(b1-4)GlcNAc(b1-4)GlcNAc
# Method in brief: as §1
# [23] = target: Gal(b1-4)GlcNAc(b1-3)Gal(b1-3)GlcNAc
# Method in brief: as §1
# [24] = target: Gal(b1-4)GlcNAc(b1-3)Gal(b1-4)Glc
# Method in brief: as §1
# [25] = target: Gal(b1-4)GlcNAc(b1-3)Gal(b1-4)GlcNAc
# Method in brief: as §1
# [26] = target: Gal(b1-4)GlcNAc(b1-3)Gal(b1-4)GlcNAc(b1-3)Gal(b1-4)GlcNAc
# Method in brief: as §1
# [27] = target: Gal(b1-4)GlcNAc(b1-3)Gal(b1-4)[Fuc(a1-3)]GlcNAc(b1-3)Gal(b1-4)[Fuc(a1-3)]GlcNAc
# Method in brief: as §1
# [28] = target: Gal(b1-4)GlcNAc(b1-3)GalNAc
# Method in brief: as §1
# [29] = target: Gal(b1-4)GlcNAc(b1-3)[Gal(b1-4)GlcNAc(b1-6)]GalNAc
# Method in brief: as §1
# [30] = target: Gal(b1-4)GlcNAc(b1-6)Gal(b1-4)GlcNAc(b1-6)GalNAc
# Method in brief: as §1
# [31] = target: Gal(b1-4)GlcNAc(b1-6)GalNAc
# Method in brief: as §1
# [32] = target: Gal(b1-4)GlcNAc(b1-6)[Gal(b1-3)]GalNAc
# Method in brief: as §1
# [33] = target: Gal3S(b1-3)GalNAc
# Method in brief: as §1
# [34] = target: Gal3S(b1-3)GlcNAc
# Method in brief: as §1
# [35] = target: Gal3S(b1-3)[Fuc(a1-4)]GlcNAc
# Method in brief: as §1
# [36] = target: Gal3S(b1-4)Glc
# Method in brief: as §1
# [37] = target: Gal3S(b1-4)Glc6S
# Method in brief: as §1
# [38] = target: Gal3S(b1-4)GlcNAc
# Method in brief: as §1
# [39] = target: Gal3S(b1-4)GlcNAc6S
# Method in brief: as §1
# [40] = target: Gal3S(b1-4)[Fuc(a1-3)]Glc
# Method in brief: as §1
# [41] = target: Gal3S6S(b1-4)GlcNAc
# Method in brief: as §1
# [42] = target: Gal3S6S(b1-4)GlcNAc6S
# Method in brief: as §1
# [43] = target: Gal4S(b1-4)GlcNAc
# Method in brief: as §1
# [44] = target: Gal4S6S(b1-4)GlcNAc
# Method in brief: as §1
# [45] = target: Gal6S(b1-4)Glc
# Method in brief: as §1
binder,measurement,setting,value
B1,glycan array binding signal (z-score),[1],-0.163
same,glycan array binding signal (z-score),[2],-0.573
same,glycan array binding signal (z-score),[3],-0.067
same,glycan array binding signal (z-score),[4],-0.314
same,glycan array binding signal (z-score),[5],0.463
same,glycan array binding signal (z-score),[6],-0.212
same,glycan array binding signal (z-score),[7],-0.227
same,glycan array binding signal (z-score),[8],-0.584
same,glycan array binding signal (z-score),[9],-0.132
same,glycan array binding signal (z-score),[10],0.728
same,glycan array binding signal (z-score),[11],-0.187
same,glycan array binding signal (z-score),[12],0.169
same,glycan array binding signal (z-score),[13],-0.247
same,glycan array binding signal (z-score),[14],-0.385
same,glycan array binding signal (z-score),[15],-0.723
same,glycan array binding signal (z-score),[16],-0.596
same,glycan array binding signal (z-score),[17],-0.164
same,glycan array binding signal (z-score),[18],0.157
same,glycan array binding signal (z-score),[19],-0.642
same,glycan array binding signal (z-score),[20],-0.193
same,glycan array binding signal (z-score),[21],-0.185
same,glycan array binding signal (z-score),[22],-0.276
same,glycan array binding signal (z-score),[23],-0.435
same,glycan array binding signal (z-score),[24],-0.366
same,glycan array binding signal (z-score),[25],0.2
same,glycan array binding signal (z-score),[26],-0.586
same,glycan array binding signal (z-score),[27],-0.396
same,glycan array binding signal (z-score),[28],-0.399
same,glycan array binding signal (z-score),[29],-0.069
same,glycan array binding signal (z-score),[30],-0.673
same,glycan array binding signal (z-score),[31],-0.397
same,glycan array binding signal (z-score),[32],-0.201
same,glycan array binding signal (z-score),[33],-0.095
same,glycan array binding signal (z-score),[34],0.421
same,glycan array binding signal (z-score),[35],0.285
same,glycan array binding signal (z-score),[36],-0.177
same,glycan array binding signal (z-score),[37],0.01
same,glycan array binding signal (z-score),[38],0.023
same,glycan array binding signal (z-score),[39],-0.1
same,glycan array binding signal (z-score),[40],-0.883
same,glycan array binding signal (z-score),[41],0.638
same,glycan array binding signal (z-score),[42],0.585
same,glycan array binding signal (z-score),[43],0.501
same,glycan array binding signal (z-score),[44],-0.147
same,glycan array binding signal (z-score),[45],-0.162

# As a short view, some entries already given.
binder,measurement,setting,value
B1,glycan array binding signal (z-score),[12],0.169
same,glycan array binding signal (z-score),[13],-0.247
same,glycan array binding signal (z-score),[14],-0.385
